Source: the supplement of paper PMC10849652
The list shows a part of the results.

Amino acid sequences for entries named in this document (tags omitted). A change or cut given only in a name is not applied to a line headed by its entry.
UniProt Q9P032: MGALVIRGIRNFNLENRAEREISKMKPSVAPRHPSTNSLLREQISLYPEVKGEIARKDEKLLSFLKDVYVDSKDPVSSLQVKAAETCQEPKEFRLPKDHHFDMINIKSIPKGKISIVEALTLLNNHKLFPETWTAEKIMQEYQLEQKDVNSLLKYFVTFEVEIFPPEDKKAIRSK
UniProt P49821, whole entry, looked up: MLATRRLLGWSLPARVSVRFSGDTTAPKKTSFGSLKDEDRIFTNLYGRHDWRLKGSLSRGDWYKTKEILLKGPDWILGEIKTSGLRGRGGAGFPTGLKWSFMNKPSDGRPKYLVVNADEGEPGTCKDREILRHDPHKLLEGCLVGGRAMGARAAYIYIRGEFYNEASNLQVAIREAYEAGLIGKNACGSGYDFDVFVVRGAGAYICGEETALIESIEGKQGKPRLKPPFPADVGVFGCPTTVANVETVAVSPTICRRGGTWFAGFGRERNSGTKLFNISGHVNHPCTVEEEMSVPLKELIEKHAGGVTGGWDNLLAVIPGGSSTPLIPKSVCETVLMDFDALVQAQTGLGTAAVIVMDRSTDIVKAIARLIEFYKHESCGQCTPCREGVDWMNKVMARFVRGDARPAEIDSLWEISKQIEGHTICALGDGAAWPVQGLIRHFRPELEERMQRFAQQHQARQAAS
UniProt Q9UN36: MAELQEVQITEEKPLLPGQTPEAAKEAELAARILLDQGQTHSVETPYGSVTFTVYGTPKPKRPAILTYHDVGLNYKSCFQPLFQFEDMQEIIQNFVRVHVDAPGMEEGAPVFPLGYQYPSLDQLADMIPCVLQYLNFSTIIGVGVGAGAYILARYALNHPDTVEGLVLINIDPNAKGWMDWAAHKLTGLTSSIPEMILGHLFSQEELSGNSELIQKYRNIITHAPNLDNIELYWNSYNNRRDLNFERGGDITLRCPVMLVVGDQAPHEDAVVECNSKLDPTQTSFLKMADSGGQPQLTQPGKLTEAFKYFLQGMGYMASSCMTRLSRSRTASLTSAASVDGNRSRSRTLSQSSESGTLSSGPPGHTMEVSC
UniProt O14777: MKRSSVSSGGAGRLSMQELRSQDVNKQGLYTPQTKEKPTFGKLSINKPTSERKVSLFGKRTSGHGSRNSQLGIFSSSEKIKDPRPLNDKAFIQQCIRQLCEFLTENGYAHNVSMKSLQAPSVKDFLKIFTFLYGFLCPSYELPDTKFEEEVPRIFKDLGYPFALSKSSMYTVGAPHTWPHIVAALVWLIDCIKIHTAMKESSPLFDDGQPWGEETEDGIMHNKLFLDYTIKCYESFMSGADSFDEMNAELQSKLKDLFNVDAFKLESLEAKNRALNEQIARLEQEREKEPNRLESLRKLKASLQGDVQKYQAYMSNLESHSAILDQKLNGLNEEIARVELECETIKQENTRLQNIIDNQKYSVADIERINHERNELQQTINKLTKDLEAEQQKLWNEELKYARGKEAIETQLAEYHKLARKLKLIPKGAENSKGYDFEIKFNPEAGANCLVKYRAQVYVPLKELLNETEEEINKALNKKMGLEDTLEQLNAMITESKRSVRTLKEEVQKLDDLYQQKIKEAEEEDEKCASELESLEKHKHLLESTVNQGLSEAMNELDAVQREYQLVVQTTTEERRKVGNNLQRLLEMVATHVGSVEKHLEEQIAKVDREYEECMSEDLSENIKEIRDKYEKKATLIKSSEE
UniProt Q8NHV4, whole entry, looked up: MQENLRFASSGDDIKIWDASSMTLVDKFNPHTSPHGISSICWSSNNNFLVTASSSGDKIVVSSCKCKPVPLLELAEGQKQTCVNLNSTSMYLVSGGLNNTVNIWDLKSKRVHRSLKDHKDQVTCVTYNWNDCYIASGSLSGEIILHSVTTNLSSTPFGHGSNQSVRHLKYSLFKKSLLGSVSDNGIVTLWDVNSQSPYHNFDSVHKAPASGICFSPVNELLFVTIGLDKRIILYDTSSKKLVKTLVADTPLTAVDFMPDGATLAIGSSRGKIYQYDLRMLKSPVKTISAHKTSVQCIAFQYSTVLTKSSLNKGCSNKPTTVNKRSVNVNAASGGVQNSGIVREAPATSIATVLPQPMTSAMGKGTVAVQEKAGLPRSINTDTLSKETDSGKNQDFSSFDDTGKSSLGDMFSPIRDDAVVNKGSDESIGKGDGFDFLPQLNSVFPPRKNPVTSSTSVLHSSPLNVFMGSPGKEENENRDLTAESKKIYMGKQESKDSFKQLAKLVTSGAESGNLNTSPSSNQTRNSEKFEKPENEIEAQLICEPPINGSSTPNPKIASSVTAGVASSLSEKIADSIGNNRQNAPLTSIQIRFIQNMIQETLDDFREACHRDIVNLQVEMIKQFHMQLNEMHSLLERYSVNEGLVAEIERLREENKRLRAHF
UniProt Q9Y221: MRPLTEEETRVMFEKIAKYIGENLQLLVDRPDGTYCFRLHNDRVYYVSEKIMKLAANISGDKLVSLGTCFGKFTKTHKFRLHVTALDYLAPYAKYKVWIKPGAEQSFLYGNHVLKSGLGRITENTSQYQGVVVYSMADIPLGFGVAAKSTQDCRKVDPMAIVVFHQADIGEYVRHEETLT
UniProt Q96IV0: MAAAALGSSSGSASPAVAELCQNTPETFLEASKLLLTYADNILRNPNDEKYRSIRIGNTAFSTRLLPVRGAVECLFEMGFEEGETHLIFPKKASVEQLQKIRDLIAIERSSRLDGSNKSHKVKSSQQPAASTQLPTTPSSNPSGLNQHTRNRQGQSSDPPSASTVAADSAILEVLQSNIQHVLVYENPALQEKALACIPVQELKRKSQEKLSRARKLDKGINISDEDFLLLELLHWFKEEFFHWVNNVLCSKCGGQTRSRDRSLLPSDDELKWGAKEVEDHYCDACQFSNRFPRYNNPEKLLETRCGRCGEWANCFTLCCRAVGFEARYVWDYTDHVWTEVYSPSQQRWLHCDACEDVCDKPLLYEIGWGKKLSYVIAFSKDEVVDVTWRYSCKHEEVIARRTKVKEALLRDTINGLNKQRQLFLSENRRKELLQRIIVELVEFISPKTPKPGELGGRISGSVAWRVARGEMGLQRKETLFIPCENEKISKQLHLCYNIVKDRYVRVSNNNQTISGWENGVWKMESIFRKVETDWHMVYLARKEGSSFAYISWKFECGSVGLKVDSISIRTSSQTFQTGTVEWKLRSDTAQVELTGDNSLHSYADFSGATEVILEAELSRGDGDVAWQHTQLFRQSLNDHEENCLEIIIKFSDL
UniProt O95182, whole entry, looked up: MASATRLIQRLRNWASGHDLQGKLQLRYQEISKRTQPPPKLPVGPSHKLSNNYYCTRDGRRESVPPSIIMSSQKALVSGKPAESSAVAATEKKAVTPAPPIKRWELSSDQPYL
UniProt P21359: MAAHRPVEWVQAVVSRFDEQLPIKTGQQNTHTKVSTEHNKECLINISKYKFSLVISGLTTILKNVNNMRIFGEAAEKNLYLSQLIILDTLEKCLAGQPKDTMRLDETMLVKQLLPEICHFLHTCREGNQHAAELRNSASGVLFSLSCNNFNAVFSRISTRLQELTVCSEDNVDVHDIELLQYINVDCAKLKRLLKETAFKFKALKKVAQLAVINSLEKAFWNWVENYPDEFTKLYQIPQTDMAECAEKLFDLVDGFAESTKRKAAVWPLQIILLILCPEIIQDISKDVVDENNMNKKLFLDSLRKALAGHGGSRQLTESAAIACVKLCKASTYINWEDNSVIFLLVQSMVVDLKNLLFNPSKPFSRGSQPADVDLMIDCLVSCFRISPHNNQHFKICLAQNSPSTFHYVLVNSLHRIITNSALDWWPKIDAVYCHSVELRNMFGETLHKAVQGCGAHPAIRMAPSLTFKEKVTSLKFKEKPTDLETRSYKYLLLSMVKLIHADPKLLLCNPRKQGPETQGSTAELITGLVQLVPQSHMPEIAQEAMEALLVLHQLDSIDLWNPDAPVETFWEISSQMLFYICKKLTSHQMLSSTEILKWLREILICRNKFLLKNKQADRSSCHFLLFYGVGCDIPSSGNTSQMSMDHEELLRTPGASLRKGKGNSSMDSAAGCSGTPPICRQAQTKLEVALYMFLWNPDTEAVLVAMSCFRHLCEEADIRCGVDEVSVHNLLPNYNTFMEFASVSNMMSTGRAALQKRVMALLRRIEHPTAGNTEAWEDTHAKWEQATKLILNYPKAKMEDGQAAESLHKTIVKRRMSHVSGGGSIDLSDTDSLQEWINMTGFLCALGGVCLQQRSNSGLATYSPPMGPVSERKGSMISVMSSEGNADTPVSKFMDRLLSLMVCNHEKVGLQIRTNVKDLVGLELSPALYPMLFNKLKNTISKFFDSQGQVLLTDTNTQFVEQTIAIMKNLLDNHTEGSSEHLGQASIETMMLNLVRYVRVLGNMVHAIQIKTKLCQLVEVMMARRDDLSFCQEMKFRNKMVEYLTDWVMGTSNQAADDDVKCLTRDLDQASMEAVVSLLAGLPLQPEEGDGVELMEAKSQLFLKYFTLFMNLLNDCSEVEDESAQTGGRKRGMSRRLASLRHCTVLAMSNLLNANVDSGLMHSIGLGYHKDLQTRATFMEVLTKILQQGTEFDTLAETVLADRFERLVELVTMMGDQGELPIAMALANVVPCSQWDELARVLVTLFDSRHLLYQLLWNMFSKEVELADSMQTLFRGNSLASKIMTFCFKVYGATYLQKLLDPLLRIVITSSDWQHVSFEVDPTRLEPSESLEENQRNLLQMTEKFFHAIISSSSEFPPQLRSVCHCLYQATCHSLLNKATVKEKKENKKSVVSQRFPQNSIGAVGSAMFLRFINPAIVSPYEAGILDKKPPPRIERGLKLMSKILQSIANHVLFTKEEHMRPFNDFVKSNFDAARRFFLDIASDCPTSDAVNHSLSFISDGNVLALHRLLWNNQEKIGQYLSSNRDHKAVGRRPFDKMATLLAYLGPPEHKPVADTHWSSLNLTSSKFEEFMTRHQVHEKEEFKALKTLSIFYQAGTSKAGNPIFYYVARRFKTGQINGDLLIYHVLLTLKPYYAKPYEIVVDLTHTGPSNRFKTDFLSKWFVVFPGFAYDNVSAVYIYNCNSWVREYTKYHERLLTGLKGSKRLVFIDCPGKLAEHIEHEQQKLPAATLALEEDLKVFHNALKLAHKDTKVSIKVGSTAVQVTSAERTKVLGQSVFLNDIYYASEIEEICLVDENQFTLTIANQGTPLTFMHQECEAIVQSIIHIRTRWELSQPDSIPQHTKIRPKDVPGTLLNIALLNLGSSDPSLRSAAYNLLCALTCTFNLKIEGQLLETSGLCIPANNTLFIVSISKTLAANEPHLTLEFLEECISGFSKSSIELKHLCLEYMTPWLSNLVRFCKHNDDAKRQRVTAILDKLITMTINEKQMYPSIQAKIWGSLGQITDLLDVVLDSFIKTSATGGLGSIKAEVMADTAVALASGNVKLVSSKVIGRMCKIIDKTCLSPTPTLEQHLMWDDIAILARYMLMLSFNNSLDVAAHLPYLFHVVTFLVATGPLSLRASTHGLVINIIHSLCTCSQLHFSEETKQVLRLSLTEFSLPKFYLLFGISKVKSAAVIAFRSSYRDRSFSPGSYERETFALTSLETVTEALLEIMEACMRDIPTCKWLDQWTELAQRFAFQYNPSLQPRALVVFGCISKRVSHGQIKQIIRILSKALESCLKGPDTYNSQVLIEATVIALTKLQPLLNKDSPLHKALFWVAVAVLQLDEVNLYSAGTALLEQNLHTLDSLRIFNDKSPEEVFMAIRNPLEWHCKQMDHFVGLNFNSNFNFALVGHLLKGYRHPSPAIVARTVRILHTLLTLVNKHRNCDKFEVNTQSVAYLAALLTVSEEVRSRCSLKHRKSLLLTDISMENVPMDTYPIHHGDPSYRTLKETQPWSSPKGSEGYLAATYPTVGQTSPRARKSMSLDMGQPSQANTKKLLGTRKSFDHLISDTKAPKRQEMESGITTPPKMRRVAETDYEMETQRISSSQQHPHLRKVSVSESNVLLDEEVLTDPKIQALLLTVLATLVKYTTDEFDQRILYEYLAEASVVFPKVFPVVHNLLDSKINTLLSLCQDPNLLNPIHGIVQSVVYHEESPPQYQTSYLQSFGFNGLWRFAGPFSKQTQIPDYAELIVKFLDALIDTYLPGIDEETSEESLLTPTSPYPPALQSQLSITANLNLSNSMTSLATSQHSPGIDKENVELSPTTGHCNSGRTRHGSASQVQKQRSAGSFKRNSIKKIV
UniProt O75323: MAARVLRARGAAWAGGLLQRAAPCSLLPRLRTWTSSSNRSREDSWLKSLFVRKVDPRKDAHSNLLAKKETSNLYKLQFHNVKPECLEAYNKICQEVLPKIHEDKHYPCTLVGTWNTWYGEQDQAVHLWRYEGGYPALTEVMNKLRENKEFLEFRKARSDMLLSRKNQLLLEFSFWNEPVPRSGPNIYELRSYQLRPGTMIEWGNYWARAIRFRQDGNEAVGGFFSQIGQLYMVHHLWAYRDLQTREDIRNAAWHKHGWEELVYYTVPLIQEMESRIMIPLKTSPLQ
UniProt Q9NYR9: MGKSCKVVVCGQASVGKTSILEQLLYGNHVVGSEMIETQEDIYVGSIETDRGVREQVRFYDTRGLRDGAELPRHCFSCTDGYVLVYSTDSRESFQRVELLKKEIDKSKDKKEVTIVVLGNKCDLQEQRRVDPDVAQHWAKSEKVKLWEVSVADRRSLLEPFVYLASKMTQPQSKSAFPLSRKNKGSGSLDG

compound: Cc1ncc(-c2ccnc(Nc3ccc(S(C)(=O)=O)cc3)n2)n1C(C)C; assay: log2 fold change, soluble protein after heating vs DMSO (PISA); higher = thermal stabilisation; K562 lysate, 10 uM; active = over 0.2 and 3.5 SD of the protein, either way, in both replicates (recomputed)
Procedure, shortened: (§1)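 Dounce homogenisation of K562 pellets in PBS pH 7.4 with 1 mM MgCl2 produced a crude extract, used at 1 mg/mL protein. Exposure to 10 μM compound lasted 30 min, and aliquots were then heated for 3 min across 48°C-58°C, pooled and brought to 0.5% NP-40 at 4°C. The supernatant after 21,000xg for 90 min was quantified by TMTpro 16plex LC-MS/MS with channel sums equalised. Duplicate values are given as log-two fold change in thermal stability relative to solvent controls.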

| Target | log2 fold change |
| --- | --- |
| NIPSNAP3A (UniProt Q9UFN0) | inactive: 0.008 |
| NEDD8 (UniProt Q15843) | inactive: 0.103 |
| NDUFAF4 (UniProt Q9P032) | inactive: -0.021 |
| NDUFV1 (UniProt P49821) | inactive: -0.022 |
| NEU1 (UniProt Q99519) | inactive: 0.194 |
| NDRG2 (UniProt Q9UN36) | inactive: 0.019 |
| NDUFAB1 (UniProt O14561) | inactive: 0.172 |
| NIFK (UniProt Q9BYG3) | inactive: 0.035 |
| NFU1 (UniProt Q9UMS0) | inactive: 0.012 |
| NDC80 (UniProt O14777) | inactive: -0.006 |
| NEDD1 isoform 3 (UniProt Q8NHV4) | inactive: 0.049 |
| NIP7 (UniProt Q9Y221) | inactive: 0.002 |
| NIT1 (UniProt Q86X76) | inactive: -0.022 |
| NDUFA10 (UniProt O95299) | inactive: 0.02 |
| NFIC (UniProt P08651) | inactive: -0.114 |
| NLRP2 (UniProt Q9NX02) | inactive: 0.007 |
| NEDD4 isoform 4 (UniProt P46934) | inactive: 0.009 |
| NDRG3 (UniProt Q9UGV2) | inactive: 0.03 |
| NFKBIE (UniProt O00221) | active: 0.424 |
| NEPRO (UniProt Q6NW34) | inactive: -0.011 |

| Target | log2 fold change |
| --- | --- |
| NDUFA11 (UniProt Q86Y39) | inactive: 0.013 |
| NGLY1 (UniProt Q96IV0) | inactive: 0.008 |
| NFS1 (UniProt Q9Y697) | inactive: 0.021 |
| NDUFA7 (UniProt O95182) | inactive: -0.014 |
| NFATC4 isoform 2 (UniProt Q14934) | inactive: 0.04 |
| NHP2 (UniProt Q9NX24) | inactive: 0.029 |
| NFATC3 (UniProt Q12968) | inactive: -0.002 |
| NFAT5 isoform 5 (UniProt O94916) | inactive: 0.046 |
| NGRN (UniProt Q9NPE2) | inactive: 0.028 |
| NDUFA6 (UniProt P56556) | inactive: -0.015 |
| NF2 (UniProt P35240) | inactive: 0.022 |
| NELFB isoform 2 (UniProt Q8WX92) | inactive: 0 |
| NDUFS7 (UniProt O75251) | inactive: -0.015 |
| NFX1 (UniProt Q12986) | inactive: 0.062 |
| NDUFB9 (UniProt Q9Y6M9) | inactive: -0.011 |
| NDUFB8 (UniProt O95169) | inactive: 0.095 |
| NF1 (UniProt P21359) | inactive: -0.039 |
| NIPSNAP2 (UniProt O75323) | inactive: -0.084 |
| NEK7 (UniProt Q8TDX7) | inactive: 0.045 |
| NKIRAS2 (UniProt Q9NYR9) | inactive: -0.023 |

compound: Cn1cc(-c2ccc3c(c2)CCN3C(=O)Cc2cccc(C(F)(F)F)c2)c2c(N)ncnc21; assay: as above
Procedure, shortened: as §1

| Target | log2 fold change |
| --- | --- |
| NIPSNAP3A (UniProt Q9UFN0) | inactive: -0.054 |
| NEDD8 (UniProt Q15843) | inactive: -0.034 |
| NDUFAF4 (UniProt Q9P032) | inactive: 0.026 |
| NDUFV1 (UniProt P49821) | inactive: -0.044 |
| NEU1 (UniProt Q99519) | inactive: -0.003 |
| NDRG2 (UniProt Q9UN36) | inactive: -0.014 |
| NDUFAB1 (UniProt O14561) | inactive: -0.16 |
| NIFK (UniProt Q9BYG3) | inactive: -0.01 |
| NFU1 (UniProt Q9UMS0) | inactive: -0.031 |
| NDC80 (UniProt O14777) | inactive: 0.025 |
| NEDD1 isoform 3 (UniProt Q8NHV4) | inactive: 0.112 |
| NIP7 (UniProt Q9Y221) | inactive: -0.006 |
| NIT1 (UniProt Q86X76) | inactive: -0.064 |
| NDUFA10 (UniProt O95299) | inactive: 0.002 |
| NFIC (UniProt P08651) | inactive: 0.022 |
| NLRP2 (UniProt Q9NX02) | inactive: 0.032 |
| NEDD4 isoform 4 (UniProt P46934) | inactive: 0.026 |
| NDRG3 (UniProt Q9UGV2) | inactive: -0.026 |
| NFKBIE (UniProt O00221) | inactive: 0.002 |
| NEPRO (UniProt Q6NW34) | inactive: 0.021 |

| Target | log2 fold change |
| --- | --- |
| NDUFA11 (UniProt Q86Y39) | inactive: -0.019 |
| NGLY1 (UniProt Q96IV0) | inactive: 0.042 |
| NFS1 (UniProt Q9Y697) | inactive: 0.004 |
| NDUFA7 (UniProt O95182) | inactive: -0.02 |
| NFATC4 isoform 2 (UniProt Q14934) | inactive: -0.041 |
| NHP2 (UniProt Q9NX24) | inactive: -0.007 |
| NFATC3 (UniProt Q12968) | inactive: 0.041 |
| NFAT5 isoform 5 (UniProt O94916) | inactive: -0.014 |
| NGRN (UniProt Q9NPE2) | inactive: 0.031 |
| NDUFA6 (UniProt P56556) | inactive: 0.045 |
| NF2 (UniProt P35240) | inactive: 0.052 |
| NELFB isoform 2 (UniProt Q8WX92) | inactive: 0.01 |
| NDUFS7 (UniProt O75251) | inactive: 0.027 |
| NFX1 (UniProt Q12986) | inactive: 0.001 |
| NDUFB9 (UniProt Q9Y6M9) | inactive: -0.004 |
| NDUFB8 (UniProt O95169) | inactive: -0.012 |
| NF1 (UniProt P21359) | inactive: 0.024 |
| NIPSNAP2 (UniProt O75323) | inactive: 0.01 |
| NEK7 (UniProt Q8TDX7) | inactive: 0.168 |
| NKIRAS2 (UniProt Q9NYR9) | inactive: -0.078 |
